Assay results from patent publication US20090186376A1.
These are yes or no findings as the source states them, for the method shown. Binding seen in cells or lysates may run through a third protein. Some binding calls cover weakened binding; strength is not graded here.

Protein sequences, listed by entry. Tags and fused reporters are not part of them. Lines headed by an entry give the natural chain unless they say otherwise; changes in a name come on top.
UniProt P35918: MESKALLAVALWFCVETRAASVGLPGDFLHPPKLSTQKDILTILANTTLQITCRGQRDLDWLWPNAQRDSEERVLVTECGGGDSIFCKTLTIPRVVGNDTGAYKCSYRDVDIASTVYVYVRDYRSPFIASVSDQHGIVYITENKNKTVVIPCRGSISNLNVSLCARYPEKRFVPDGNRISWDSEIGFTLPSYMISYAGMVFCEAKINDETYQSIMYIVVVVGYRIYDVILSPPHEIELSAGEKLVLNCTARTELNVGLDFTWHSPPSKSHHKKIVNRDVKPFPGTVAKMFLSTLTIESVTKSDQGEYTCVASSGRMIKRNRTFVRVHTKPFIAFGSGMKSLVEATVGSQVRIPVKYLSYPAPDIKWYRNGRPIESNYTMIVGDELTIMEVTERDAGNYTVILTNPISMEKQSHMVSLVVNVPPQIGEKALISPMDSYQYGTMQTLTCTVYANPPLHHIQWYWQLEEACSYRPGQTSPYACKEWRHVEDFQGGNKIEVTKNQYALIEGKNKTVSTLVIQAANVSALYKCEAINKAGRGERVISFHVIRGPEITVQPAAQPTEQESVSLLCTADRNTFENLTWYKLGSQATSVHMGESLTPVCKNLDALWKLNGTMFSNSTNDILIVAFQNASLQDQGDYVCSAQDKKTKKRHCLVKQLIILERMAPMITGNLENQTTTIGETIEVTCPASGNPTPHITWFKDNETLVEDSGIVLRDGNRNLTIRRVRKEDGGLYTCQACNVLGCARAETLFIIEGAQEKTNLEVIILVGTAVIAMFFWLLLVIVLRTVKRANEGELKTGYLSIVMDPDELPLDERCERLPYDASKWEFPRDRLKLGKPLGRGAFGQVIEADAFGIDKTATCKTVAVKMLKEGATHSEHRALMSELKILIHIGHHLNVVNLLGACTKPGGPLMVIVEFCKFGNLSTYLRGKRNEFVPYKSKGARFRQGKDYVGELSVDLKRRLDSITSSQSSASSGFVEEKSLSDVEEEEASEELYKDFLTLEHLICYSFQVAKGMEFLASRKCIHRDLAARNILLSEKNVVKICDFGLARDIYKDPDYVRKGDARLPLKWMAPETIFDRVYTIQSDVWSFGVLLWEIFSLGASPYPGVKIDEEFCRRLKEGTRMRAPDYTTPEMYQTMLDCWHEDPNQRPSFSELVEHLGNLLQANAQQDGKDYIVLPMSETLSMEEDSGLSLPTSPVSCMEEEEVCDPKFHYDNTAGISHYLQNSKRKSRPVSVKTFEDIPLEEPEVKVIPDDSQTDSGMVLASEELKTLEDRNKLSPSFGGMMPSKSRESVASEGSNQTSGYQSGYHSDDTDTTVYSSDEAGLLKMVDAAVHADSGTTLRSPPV

Target: T1, mouse VEGF-C (mouse) (UniProt P97953)
T1 sequence (looked up): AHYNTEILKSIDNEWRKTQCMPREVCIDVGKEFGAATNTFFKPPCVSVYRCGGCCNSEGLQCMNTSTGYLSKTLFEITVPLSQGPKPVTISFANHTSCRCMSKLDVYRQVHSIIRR
Assay: co-immunoprecipitation of recombinant mouse sVEGFR-2 and mouse VEGF-C with an anti-VEGFR-2 antibody, then western blot

In the case of “mouse soluble vascular endothelial growth factor receptor 2 (sVEGFR-2) (from UniProt P35918 20-660)”, the binding is reported as “binds”.
